# Assay results as given in US20250020645, “A4B1 BINDING APTAMERS” (University of Washington, published 2025).
# Chains of the proteins cited; added tags and fusions are not shown. Chains listed by the source or under a name are the forms on record and can include a tag or linker.
# Integrin alpha4beta1 on Jurkat cells (clone E6-1) (Homo sapiens), one chain, as listed by the source, chain 1 of 2: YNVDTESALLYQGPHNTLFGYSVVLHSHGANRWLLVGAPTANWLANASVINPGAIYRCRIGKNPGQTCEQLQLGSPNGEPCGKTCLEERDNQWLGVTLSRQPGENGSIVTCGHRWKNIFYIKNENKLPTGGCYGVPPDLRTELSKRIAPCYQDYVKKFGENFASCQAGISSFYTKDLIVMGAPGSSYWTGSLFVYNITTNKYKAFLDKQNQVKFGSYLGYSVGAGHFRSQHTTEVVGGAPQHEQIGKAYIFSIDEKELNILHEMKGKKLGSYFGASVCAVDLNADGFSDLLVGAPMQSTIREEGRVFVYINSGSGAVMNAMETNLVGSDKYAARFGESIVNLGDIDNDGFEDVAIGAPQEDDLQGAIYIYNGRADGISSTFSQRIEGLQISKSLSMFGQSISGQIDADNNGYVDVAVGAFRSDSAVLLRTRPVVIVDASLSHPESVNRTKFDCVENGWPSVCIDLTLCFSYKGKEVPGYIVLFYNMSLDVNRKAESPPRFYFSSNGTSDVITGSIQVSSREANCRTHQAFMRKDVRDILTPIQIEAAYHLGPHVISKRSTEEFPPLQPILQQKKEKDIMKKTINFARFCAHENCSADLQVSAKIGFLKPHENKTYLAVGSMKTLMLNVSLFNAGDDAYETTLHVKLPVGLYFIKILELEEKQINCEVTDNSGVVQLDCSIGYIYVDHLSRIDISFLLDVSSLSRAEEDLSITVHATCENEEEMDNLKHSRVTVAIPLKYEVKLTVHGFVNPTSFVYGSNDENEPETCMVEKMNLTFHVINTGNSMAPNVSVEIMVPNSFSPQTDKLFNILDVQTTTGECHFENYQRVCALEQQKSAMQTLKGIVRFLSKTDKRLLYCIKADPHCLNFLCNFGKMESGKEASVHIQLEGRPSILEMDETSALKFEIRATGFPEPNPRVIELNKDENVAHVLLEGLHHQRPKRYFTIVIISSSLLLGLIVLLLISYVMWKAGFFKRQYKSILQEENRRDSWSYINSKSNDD
# Integrin alpha4beta1 on B16F10 melanoma cells (Mus musculus), one chain, as listed by the source, chain 2 of 2: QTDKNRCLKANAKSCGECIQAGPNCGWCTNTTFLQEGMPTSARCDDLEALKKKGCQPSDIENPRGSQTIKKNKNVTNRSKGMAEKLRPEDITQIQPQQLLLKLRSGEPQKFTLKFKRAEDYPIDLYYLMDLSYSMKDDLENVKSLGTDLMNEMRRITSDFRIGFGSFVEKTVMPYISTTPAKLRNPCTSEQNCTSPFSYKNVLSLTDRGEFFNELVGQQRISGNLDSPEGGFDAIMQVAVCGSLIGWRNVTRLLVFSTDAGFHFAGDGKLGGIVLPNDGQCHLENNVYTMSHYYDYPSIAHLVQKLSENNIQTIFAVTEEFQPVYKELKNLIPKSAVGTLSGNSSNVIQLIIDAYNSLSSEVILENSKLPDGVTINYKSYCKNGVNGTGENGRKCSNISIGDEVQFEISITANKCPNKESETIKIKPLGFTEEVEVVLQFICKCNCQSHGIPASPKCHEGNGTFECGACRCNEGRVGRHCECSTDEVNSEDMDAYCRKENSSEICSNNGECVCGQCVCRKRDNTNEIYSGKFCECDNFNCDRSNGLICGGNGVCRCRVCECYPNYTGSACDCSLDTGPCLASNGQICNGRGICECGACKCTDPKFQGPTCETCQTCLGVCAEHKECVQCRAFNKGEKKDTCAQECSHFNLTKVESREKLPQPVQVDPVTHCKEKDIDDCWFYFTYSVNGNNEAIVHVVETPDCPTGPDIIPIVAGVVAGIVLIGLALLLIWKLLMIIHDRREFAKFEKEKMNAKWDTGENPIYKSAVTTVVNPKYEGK
# Integrin alpha4beta1 on B16F10 melanoma cells (Mus musculus), one chain, as listed by the source, chain 1 of 2: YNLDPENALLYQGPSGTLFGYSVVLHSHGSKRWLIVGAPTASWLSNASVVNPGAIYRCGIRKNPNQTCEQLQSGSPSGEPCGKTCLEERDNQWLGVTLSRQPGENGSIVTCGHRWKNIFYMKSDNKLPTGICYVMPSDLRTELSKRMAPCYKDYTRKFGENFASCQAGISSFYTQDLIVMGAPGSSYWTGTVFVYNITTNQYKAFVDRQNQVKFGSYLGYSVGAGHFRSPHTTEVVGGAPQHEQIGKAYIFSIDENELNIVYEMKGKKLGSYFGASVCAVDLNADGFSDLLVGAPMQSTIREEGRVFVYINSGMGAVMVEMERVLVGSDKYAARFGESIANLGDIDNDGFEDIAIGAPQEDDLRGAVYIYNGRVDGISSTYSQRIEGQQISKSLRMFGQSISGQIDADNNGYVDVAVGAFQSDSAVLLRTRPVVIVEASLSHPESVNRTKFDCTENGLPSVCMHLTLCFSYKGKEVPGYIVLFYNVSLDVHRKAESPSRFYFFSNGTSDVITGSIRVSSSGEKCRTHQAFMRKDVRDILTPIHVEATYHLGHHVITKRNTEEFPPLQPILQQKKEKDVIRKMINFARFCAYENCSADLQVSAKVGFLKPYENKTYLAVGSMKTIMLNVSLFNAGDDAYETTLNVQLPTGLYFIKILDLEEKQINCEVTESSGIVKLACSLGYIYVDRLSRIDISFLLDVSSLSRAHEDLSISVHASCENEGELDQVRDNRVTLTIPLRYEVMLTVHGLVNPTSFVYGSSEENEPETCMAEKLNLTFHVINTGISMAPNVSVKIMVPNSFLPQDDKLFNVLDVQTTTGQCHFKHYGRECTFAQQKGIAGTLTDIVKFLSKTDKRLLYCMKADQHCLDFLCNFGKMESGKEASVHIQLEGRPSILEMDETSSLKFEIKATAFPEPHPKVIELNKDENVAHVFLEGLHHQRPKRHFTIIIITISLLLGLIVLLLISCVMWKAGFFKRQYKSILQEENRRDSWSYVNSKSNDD
# Integrin alpha4beta7, recombinant heterodimer (Homo sapiens), one chain, as listed by the source, chain 2 of 2: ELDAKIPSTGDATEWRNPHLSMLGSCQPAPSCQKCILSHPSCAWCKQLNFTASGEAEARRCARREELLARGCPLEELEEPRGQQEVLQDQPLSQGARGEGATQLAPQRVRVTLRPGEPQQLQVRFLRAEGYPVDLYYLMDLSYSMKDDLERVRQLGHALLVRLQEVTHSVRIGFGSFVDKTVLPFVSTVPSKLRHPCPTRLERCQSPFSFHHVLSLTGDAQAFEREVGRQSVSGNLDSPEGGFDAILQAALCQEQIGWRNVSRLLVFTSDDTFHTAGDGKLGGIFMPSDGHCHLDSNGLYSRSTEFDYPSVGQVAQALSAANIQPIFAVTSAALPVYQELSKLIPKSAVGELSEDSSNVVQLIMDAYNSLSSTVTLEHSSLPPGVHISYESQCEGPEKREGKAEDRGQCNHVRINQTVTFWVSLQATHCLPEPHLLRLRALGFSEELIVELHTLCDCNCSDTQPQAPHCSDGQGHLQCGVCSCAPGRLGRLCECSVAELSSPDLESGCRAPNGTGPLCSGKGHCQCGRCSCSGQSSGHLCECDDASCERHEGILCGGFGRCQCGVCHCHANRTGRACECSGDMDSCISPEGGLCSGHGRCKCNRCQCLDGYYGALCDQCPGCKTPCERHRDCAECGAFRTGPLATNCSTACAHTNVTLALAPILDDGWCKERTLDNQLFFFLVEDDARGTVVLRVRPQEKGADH
# Integrin alpha4beta7, recombinant heterodimer (Homo sapiens), one chain, as listed by the source, chain 1 of 2: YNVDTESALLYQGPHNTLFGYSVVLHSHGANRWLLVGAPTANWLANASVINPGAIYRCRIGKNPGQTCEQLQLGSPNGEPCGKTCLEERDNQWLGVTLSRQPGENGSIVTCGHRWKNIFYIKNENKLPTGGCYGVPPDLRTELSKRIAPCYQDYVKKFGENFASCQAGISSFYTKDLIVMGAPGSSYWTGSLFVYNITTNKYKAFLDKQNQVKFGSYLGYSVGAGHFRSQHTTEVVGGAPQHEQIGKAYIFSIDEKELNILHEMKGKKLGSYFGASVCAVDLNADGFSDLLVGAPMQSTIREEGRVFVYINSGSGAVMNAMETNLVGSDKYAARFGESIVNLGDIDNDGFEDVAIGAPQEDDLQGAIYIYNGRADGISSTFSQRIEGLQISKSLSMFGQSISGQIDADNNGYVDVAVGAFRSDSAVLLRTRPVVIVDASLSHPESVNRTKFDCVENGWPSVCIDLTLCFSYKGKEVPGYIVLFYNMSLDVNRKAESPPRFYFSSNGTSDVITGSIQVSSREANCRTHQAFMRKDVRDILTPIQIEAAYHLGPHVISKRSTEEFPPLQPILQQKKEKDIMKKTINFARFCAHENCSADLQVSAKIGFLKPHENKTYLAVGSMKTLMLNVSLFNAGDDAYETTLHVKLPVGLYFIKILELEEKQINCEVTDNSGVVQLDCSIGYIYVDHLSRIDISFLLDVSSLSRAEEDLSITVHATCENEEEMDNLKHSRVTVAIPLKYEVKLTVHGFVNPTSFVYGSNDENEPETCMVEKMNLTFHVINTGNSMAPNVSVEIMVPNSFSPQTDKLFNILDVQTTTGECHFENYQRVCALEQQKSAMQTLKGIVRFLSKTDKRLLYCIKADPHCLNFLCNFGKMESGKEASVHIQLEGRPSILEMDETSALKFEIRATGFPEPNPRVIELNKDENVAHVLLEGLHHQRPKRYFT
# Integrin beta1 (CD29) on alpha4-negative K562 cells (alpha5beta1+) (Homo sapiens), one chain, as listed by the source, chain 1 of 2: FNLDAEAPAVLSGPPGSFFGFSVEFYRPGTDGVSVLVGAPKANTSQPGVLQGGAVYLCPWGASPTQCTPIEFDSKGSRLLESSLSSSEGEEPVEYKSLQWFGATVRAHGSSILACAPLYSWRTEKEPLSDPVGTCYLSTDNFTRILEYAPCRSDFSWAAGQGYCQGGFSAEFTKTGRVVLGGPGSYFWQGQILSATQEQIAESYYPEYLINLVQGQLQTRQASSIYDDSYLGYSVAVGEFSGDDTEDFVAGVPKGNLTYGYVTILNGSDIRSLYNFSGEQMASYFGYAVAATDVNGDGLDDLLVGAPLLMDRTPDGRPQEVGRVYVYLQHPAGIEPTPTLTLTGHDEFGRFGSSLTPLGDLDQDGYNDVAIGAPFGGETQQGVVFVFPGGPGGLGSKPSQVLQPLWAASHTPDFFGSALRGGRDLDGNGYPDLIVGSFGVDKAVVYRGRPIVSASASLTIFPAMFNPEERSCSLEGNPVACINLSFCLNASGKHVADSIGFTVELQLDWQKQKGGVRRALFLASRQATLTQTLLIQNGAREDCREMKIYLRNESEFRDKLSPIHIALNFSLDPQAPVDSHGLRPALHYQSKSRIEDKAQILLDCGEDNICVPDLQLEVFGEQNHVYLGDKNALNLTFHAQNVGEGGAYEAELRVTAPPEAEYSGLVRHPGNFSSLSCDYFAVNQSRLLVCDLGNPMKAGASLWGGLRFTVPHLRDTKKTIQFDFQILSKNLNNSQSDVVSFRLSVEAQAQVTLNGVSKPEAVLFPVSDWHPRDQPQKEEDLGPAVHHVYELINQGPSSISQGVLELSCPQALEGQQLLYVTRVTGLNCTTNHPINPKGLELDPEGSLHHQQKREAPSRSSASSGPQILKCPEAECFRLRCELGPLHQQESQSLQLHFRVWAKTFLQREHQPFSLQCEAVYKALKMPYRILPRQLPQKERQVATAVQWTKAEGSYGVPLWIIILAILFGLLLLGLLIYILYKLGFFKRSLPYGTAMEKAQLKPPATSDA
# For part of these data: Weaker means in comparison with the reference protein, sequence or condition of that experiment. For part of these data: Where cells or extracts were used, other partners may take part. For part of these data: No signal at the amounts used counts as a negative. For part of these data: The exact form of at least one protein or probe is not confirmed.
# Legend:
# [1] = test system: Integrin alpha4beta1 on Jurkat cells (clone E6-1) (Homo sapiens); test: inhibition of the protein; details: protein on the cell surface, protein details: endogenous, ATCC cell line, single-stranded DNA
# [2] = test system: Integrin alpha4beta1 on H9 T-lymphoma cells (Homo sapiens); test: flow cytometry; details: protein on the cell surface, protein details: endogenous, ATCC cell line, single-stranded DNA
# [3] = test system: Integrin alpha4beta1 on Jurkat cells (clone E6-1) (Homo sapiens); test: flow cytometry; details: protein on the cell surface, protein details: endogenous, ATCC cell line, single-stranded DNA
# [4] = test system: Integrin beta1 (CD29) on alpha4-negative K562 cells (alpha5beta1+) (Homo sapiens); test: flow cytometry; details: alpha4-negative beta1-positive cells, protein on the cell surface, protein details: endogenous, ATCC cell line, single-stranded DNA
# [5] = test system: Integrin alpha4beta1 on B16F10 melanoma cells (Mus musculus); test: flow cytometry; details: lower affinity and MFI than HR7A1; protein on the cell surface; protein details: endogenous, ATCC cell line; label: Cy5; single-stranded DNA
# [6] = test system: Integrin alpha4beta7, recombinant heterodimer (Homo sapiens); test: BLI; details: 100 nM protein; signal at least 10-fold lower than alpha4beta1, fast dissociation; purified recombinant protein; protein details: His-tag, ACROBiosystems IT7-H52W4; label: biotin, FAM or Cy5; single-stranded DNA
# [7] = test system: Integrin alpha4beta1 in Jurkat/H9 membrane protein extract (Homo sapiens); test: pull-down; details: protein in an extract, protein details: endogenous, Triton X-100 solubilised, single-stranded DNA
# [8] = test system: Integrin alpha4beta1 on Raji B-lymphoma cells (Homo sapiens); test: flow cytometry; details: lowest binding of four lines, saturated at 12.5 nM; protein on the cell surface; protein details: endogenous, ATCC cell line; label: biotin, FAM or Cy5; single-stranded DNA
# [9] = test system: Integrin alpha4beta1 on Jurkat cells (clone E6-1) (Homo sapiens); test: competition with a labelled probe; details: control; does not inhibit VCAM-1 binding; protein on the cell surface; protein details: endogenous, ATCC cell line; label: biotin or Cy5; single-stranded DNA
# [10] = apparent, range over four aptamers, Tr2 two- to three-fold lower Kd than HR7A1 and Sgc4f, 4 C, label: biotin, FAM or Cy5, variant of HR7A1
# [11] = label: biotin, FAM or Cy5, variant of HR7A1
# [12] = 5' DBCO-TEG with 4dT spacer, grafted on biotin-PEG4-(HPMA-co-AzP3MA)-CCP polymer, range over three conjugates, by aptamer concentration, 4 C, label: 3' Cy5, variant of HR7A1.Tr2.S2E2
# [13] = label: biotin, variant of HR7A1.Tr2
# [14] = apparent, range over four aptamers, Tr1 two- to three-fold lower Kd than HR7A1 and Sgc4f, 4 C, label: biotin, FAM or Cy5, variant of HR7A1
sequence,measurement,setting,value
CGCGCCGTACTAGATGCAACCCGACTACTAACGTCGTACGAGCGCG [HR7A1.Tr2.S2E2.PSA],functional effect of the aptamer,"[1]; PS at * : C*G*CGCCGTA*CTA*GA*TGCA*A*CCCGACTACTAA*CGTCGTACGAGCG*C*G, 100 nM inhibits Jurkat adhesion to VCAM-1, less at 37 C than 4 C, variant of HR7A1.Tr2.S2E2",active
CTCCTTACTAGATGCAACCCGACTACTAACGTCGTAAGAGAG [HR7A1.Tr2],binding result,[2]; [10],binds
same,binding result,[3]; [10],binds
same,binding result,[4]; [11],no binding
CGCGCCGTACTAGATGCAACCCGACTACTAACGTCGTACGAGCGCG [HR7A1.Tr2.S2E2-polymer conjugate 1:1],binding result,[3]; [12],binds
ATCACTTATAACGAGTGCGGATGCAAACGCCAGACAGGGGGACAGGAGATAAGTGA [Sgc4f],binding result,[5],binds more weakly
same,binding result,"[2]; apparent, range over four aptamers, similar to HR7A1, 4 C, label: Cy5",binds
same,binding result,"[3]; apparent, range over four aptamers, slightly lower affinity than HR7A1, 4 C, label: Cy5",binds
same,binding result,[4]; label: Cy5,no binding
CGCGCCGTACTAGATGCAACCCGACTACTAACGTCGTACGAGCGCG [HR7A1.Tr2.S2E2-polymer conjugate 3:1],binding result,[3]; [12],binds
same,functional effect of the aptamer,"[1]; 5' DBCO-TEG with 4dT spacer, grafted on biotin-PEG4-(HPMA-co-AzP3MA)-CCP polymer, improved inhibition of Jurkat adhesion to VCAM-1 at 37 C vs free aptamer, label: 3' Cy5, variant of HR7A1.Tr2.S2E2, dose not given here",active
ATCCAGAGTGACGCAGCAAACCTGACCTCCTTACTAGATGCAACCCGACTACTAACGTCGTAAGAGAGCCTGGACACGGTGGCTTAGT [HR7A1],binding result,[6],binds more weakly
same,binding result,"[7]; bands identified by MS as integrin alpha4 and beta1, label: biotin, FAM or Cy5",binds
same,binding result,[8],binds
same,binding result,"[4]; label: biotin, FAM or Cy5",no binding
GCGTACTAGATGCAACCCGACTACTAACGTCGTACGC [HR7A1.Tr4],binding result,"[3]; retains binding affinity, minimal motif, label: Cy5, variant of HR7A1.Tr2",binds
GCAGCAGCGTAAAGGGGGTGTTTGTGCGGTGTGGAGTGCGCGTGCTGCTGC [tJBA8.1],binding result,"[7]; TfR1 aptamer control, alpha4/beta1 bands not enriched, label: biotin or Cy5",no binding
same,binding result,[9],no binding
CTAGATGCAACCCGACTACTAACGTCG [HR7A1.Tr3],binding result,[2]; [13],no binding
same,binding result,[3]; [13],no binding
CAGCAAACCTGACCTCCTTACTAGATGCAACCCGACTACTAACGTCGTAAGAGAG [HR7A1.Tr1],binding result,[2]; [14],binds
same,binding result,[3]; [14],binds
same,binding result,[4]; [11],no binding
CGCGCCGTACTAGATGCAACCCGACTACTAACGTCGTACGAGCGCG [HR7A1.Tr2.S2E2],functional effect of the aptamer,"[1]; 100 nM inhibits Jurkat adhesion to VCAM-1, less at 37 C than 4 C, label: FAM or Cy5, variant of HR7A1.Tr2",active
